Out of some 140,000 compounds screened, about 4,300 (3.1%) were called active. This list was built around the results that the source calls inconclusive (neither active nor inactive); the mix of calls is not that of the screen.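 The calls were made as follows: active = readout at or below -70, meaning at least 70% loss of cells showing the perinucleolar compartment, a nuclear body marking cancer cells; inconclusive = readout between -30 and a set limit; inactive = the rest.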
Test: High Content Assay for Compounds that inhibit the Assembly of the Perinucleolar Compartment;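 also: plate controls were DMSO wells for no effect and camptothecin positive control wells for full effect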
Settings: PC3M PTB-GFP, PNC prevalence imaging, 16 h; at 10 µM; stronger effect = lower value
Summary of the method: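 Compounds are pinned in duplicate onto adhered PC3M cells stably expressing GFP-tagged PTB and incubated 16 h at 37 C. Cells are then fixed, nuclei stained with Hoechst, and PNC-positive cells counted.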

Row | SMILES | activity change (PNC), negative = inhibition
1 | CCc1nnc(NC(=O)NCN2C(=O)C3C4C=CC(C4)C3C2=O)s1 (centres undefined) | inactive: 13.9%
2 | Cc1ccc(S(=O)(=O)N/N=C/c2ccc(OCC(=O)Nc3ccccc3Cl)cc2)cc1 | inactive: 14.7%
3 | COc1ccc(-c2cc(CCCC(=O)N3CCN(c4ccc(OC)cc4)CC3)no2)cc1 | inconclusive: -43.1%
4 | Cc1ccc2c(c1)nnn2C1CCN(CC(=O)N2CCN(c3ccc(F)cc3)CC2)CC1 | inconclusive: -30%
5 | COCCn1nnnc1C(c1ccccc1OC)N1CCN(c2ccccc2F)CC1 (centres undefined) | inactive: -6.02%
6 | N#C/C(=C\c1ccc(Sc2ccc(Cl)cc2)o1)c1nc2ccccc2[nH]1 | inactive: 1.33%
7 | CCOC(=O)c1c(N)n(CCOC(=O)c2cccs2)c2nc3ccccc3nc12 | inconclusive: -38.1%
8 | Cn1c(SCc2nc3ccccc3c(=O)[nH]2)nnc1-c1ccco1 | inconclusive: -61.8%
9 | O=C(CN1CC(c2ccccc2)CC1=O)OCc1ccccc1F (centres undefined) | active: -90.9%
10 | Cc1cccc(S(=O)(=O)NCCC(=O)OC(C)C(=O)NC(=O)NC2CCCCC2)c1 (centres undefined) | inconclusive: -43.6%
11 | N#Cc1ccccc1CN1C(=O)S/C(=C/c2cccn2-c2ccc(C(=O)O)cc2)C1=O | inconclusive: -49.3%
12 | COc1ccc(S(=O)(=O)n2nc(C)cc2C)c(C)c1C | inactive: -21.6%
13 | O=C1CN(CC(=O)N2CCOCC2)c2ccccc2O1 | active: -118%
14 | CCOC(=O)N1CCC(NC(=O)c2cc(C(=O)NC3CCCC3)ccc2CO)CC1 | inconclusive: -61.2%
15 | C/C(=C\C(=O)O)C(=O)Nc1nccs1 | inconclusive: -61.1%
16 | Cc1ccc(-n2nc3ccc(N)cc3n2)cc1 | inactive: -9.79%
17 | Cc1cc(=O)[nH]c2cc(O)ccc12 | inconclusive: -36.3%
18 | CCCCCCn1c(=O)c(-c2ccccc2)c(O)c2ccccc21 | inconclusive: -55.8%
19 | COc1ccc(CC/C(C)=N\NC(N)=O)cc1 | active: -105%
20 | CNC(=S)N1N=C(c2ccc(Br)cc2)CC1c1ccc(Br)cc1 (centres undefined) | inconclusive: -36.6%
21 | Cc1cccc(NC(=O)CN2C(=O)N/C(=C/c3ccc(C)o3)C2=O)c1 | inactive: -1.36%
22 | Nc1cccc2c1C(=O)N(C(=O)c1cccc(S(=O)(=O)N3CCCC3)c1)C2=O | inconclusive: -40.7%
23 | O=C(COC(=O)c1ccc2c(c1Cl)C(=O)c1ccccc1C2=O)NC1CCCCC1 | inactive: 18.7%

Row | SMILES | activity change (PNC), negative = inhibition
24 | CCC(CO)NCCNC(CC)CO (centres undefined) | inconclusive: -70.5%
25 | CC1(C)CC(=O)C(CC2=C(O)CC(C)(C)CC2=O)C(=O)C1 | inactive: -6.34%
26 | COc1nc(Nc2ccc(OC)c(Cl)c2)nc(OC)n1 | active: -80.8%
27 | CCn1nnnc1SCC(=O)Nc1ccc(OC)cc1 | active: -100%
28 | O=C(CSc1nnc2scc(-c3ccccc3)n12)N1CCCc2ccccc21 | inactive: -10.3%
29 | c1ccc(CSc2nnnn2-c2cccc3ccccc23)nc1 | inconclusive: -43.1%
30 | COc1cccc(-n2c(SCC(N)=O)nnc2-c2ccncc2)c1 | inconclusive: -74.4%
31 | Cc1ccccc1NS(=O)(=O)c1cc(C(=O)NCCSC2CCCCC2)ccc1C | inconclusive: -47.6%
32 | COc1ccc(-n2c(C)cc(C(=O)COC(=O)Cc3n[nH]c(=O)c4ccccc34)c2C)cc1 | inconclusive: -58.4%
33 | O=C(Nc1nnc(C2CCCCC2)s1)c1ccco1 | inconclusive: -51.4%
34 | COc1ccccc1C(=O)Nc1cccc(-c2cn3ccsc3n2)c1 | inconclusive: -66%
35 | Cc1cccc2nc(Cn3c(=O)n(CCCC(=O)NCc4ccco4)c(=O)c4ccccc43)cc(=O)n12 | inconclusive: -46.3%
36 | Cn1c(=O)c2c(ncn2CC(=O)NCc2cccnc2)n(C)c1=O | inconclusive: -63.7%
37 | O=C1CC(=O)N(CCc2ccccc2)C(=O)N1CCc1ccccc1 | inconclusive: -53.2%
38 | COC(=O)c1cc(OC)c(OC)cc1NC(=O)c1ccc(OC)c(OC)c1 | inconclusive: -30.5%
39 | CCC(=O)NC(=S)Nc1ccc(-c2nc3ccc(C)cc3s2)cc1 | inactive: -3.03%
40 | Cc1ccc(-n2ncc3c(=O)n(-c4ccc(C)c(C)c4)c(C)nc32)cc1 | inconclusive: -68.3%
41 | Cn1cc(Cl)c(C(=O)Nc2nc3ccccc3s2)n1 | inconclusive: -51.7%
42 | O=C(CC1Sc2ccccc2NC1=O)Nc1cccnc1 (centres undefined) | inactive: 51.3%
43 | O=C(CSc1nc2ccccc2c(=O)n1-c1ccccc1Cl)Nc1cccc(S(=O)(=O)N2CCOCC2)c1 | inconclusive: -34.5%
44 | COc1ccc2[nH]c(=O)c(CN(C(=O)c3cccnc3)c3ccccc3OC)cc2c1 | inconclusive: -35.5%
45 | Cc1ccc(S(=O)(=O)N2CCN(C(=O)CN3CCN(C)CC3)C2)cc1 | inactive: -28.6%
46 | C=CCN1C(c2ccccc2)=CS/C1=C(\C#N)c1nnc2n1CCCCC2 | inactive: -18.1%

From entry 16 to 21, as listed above:
Row | SMILES | activity change (PNC), negative = inhibition
16 | Cc1ccc(-n2nc3ccc(N)cc3n2)cc1 | inactive: -9.79%
17 | Cc1cc(=O)[nH]c2cc(O)ccc12 | inconclusive: -36.3%
18 | CCCCCCn1c(=O)c(-c2ccccc2)c(O)c2ccccc21 | inconclusive: -55.8%
19 | COc1ccc(CC/C(C)=N\NC(N)=O)cc1 | active: -105%
20 | CNC(=S)N1N=C(c2ccc(Br)cc2)CC1c1ccc(Br)cc1 (centres undefined) | inconclusive: -36.6%
21 | Cc1cccc(NC(=O)CN2C(=O)N/C(=C/c3ccc(C)o3)C2=O)c1 | inactive: -1.36%

Further entries follow:

Row | SMILES | activity change (PNC), negative = inhibition
47 | O=C(Nc1ccc(S(=O)(=O)NCc2ccccc2)cc1)c1ccccc1[N+](=O)[O-] | inconclusive: -33.6%
48 | CCOc1cc(NC(=S)NCCCN(C)C)c(OCC)cc1NC(=O)c1cccs1 | inconclusive: -36.1%
49 | COc1cc(Cl)c(S(=O)(=O)NCc2ccccn2)cc1Cl | inconclusive: -37.4%
50 | CC1CCCCC1NC(=O)C1CCN(S(=O)(=O)c2cccc3nsnc23)CC1 (centres undefined) | inconclusive: -43.4%
51 | COc1ccc(CNc2cc(C)ccc2C)c(OC)c1OC | inactive: 1.49%
52 | C=CCn1c(=O)/c(=C/c2cc(OC)c(OC)c(OC)c2)s/c1=C(/C#N)c1nc2ccccc2n1C | inactive: -16.2%
53 | C/C=C/c1ccc(Oc2nnnn2-c2ccc(C(=O)O)cc2)c(OC)c1 | inconclusive: -44%
54 | Cc1cc(C(=O)Cn2nnc3ccccc3c2=O)c(C)n1-c1ccccc1F | active: -87.1%
55 | COC(=O)c1ccc(/C=N/NS(=O)(=O)c2cc(C)ccc2C)cc1 | inconclusive: -56.7%
56 | Cc1[nH]c(=O)[nH]c1C(=O)CCCCC(=O)O | inconclusive: -47.4%
57 | Cc1ccc(C)c(NC(CC(=O)c2ccccc2)C(=O)OCC(=O)c2cccs2)c1 (centres undefined) | inconclusive: -51.3%
58 | Cc1cc2nc(N)sc2cc1[N+](=O)[O-] | inactive: -16.3%
59 | Cc1occc1-c1n[nH]c(=S)n1CC(C)C | active: -93.5%
60 | CSc1nsc(SCC(=O)Nc2ccccn2)n1 | inconclusive: -44.5%
61 | NC(=O)C1CCN(C(=O)CSc2nc3c(c(-c4ccccc4)n2)CCCC3)CC1 | inconclusive: -34.3%
62 | O=C(CN(Cc1ccc2c(c1)OCO2)C(=O)c1cnsn1)NC1CCCC1 | inactive: -19.4%
63 | C/C(=N\NC(=O)c1csc2ccccc12)c1ccc(O)cc1 | inconclusive: -33.5%
64 | CC(C)(C)C1CCc2onc(C(=O)Nc3cnn(Cc4ccc(F)cc4)c3)c2C1 (centres undefined) | inconclusive: -64.1%
65 | NC(=O)c1csc(-c2ccncc2)n1 | inconclusive: -55.3%
66 | Cc1cccc(OCCCN2CCCCCC2)c1 | inconclusive: -46.3%
67 | O=C(NC(=S)Nc1cc(C(F)(F)F)ccc1N1CCOCC1)c1ccc(-c2cccc(Cl)c2)o1 | inconclusive: -30.7%
68 | CN(CC(CC(=O)Nc1nncs1)c1ccccc1)S(=O)(=O)c1ccc(Br)cc1 (centres undefined) | inconclusive: -61%
69 | CC(C(=O)N1CC2(C)CC1CC(C)(C)C2)N1C(=O)c2ccccc2C1=O (centres undefined) | inconclusive: -31%

Row | SMILES | activity change (PNC), negative = inhibition
70 | COc1ccc(CC(=O)Nc2ccc(C(=O)NC(C)(C)C)cc2)cc1 | active: -85%
71 | O=C(CSc1nnc(NC2CCCCC2)s1)Nc1ccc(N2CCOCC2)cc1 | inactive: -14.6%
72 | O=C(O)c1ccc(CSc2nc3ccc(N4C(=O)C5C6C=CC(C6)C5C4=O)cc3s2)cc1 (centres undefined) | inactive: 26.8%
73 | C=CCN1C(=O)C(Cc2ccc(OCC)cc2)SC1=Nc1ccc(C(=O)O)cc1 (centres undefined) | inconclusive: -46.1%
74 | CC(=O)NC1C(Oc2cccc(C)c2)OC2COC(c3ccco3)OC2C1O (centres undefined) | inconclusive: -66.1%
75 | CC(=O)Nc1ccc(C(=O)NNC(=O)c2cccs2)cc1 | inconclusive: -38%
76 | CC1(C)CC(=S)Nc2ccccc2S1 | active: -100%
77 | CCCc1cc(-c2n[nH]c(C)c2-c2ccc(C(=O)OCC)o2)c(O)cc1O | inconclusive: -45.6%
78 | COc1cc2c(cc1/C=C1/NC(=O)N(c3ccccc3)C1=O)OCO2 | inactive: -20.8%
79 | O=[N+]([O-])c1ccc(Cl)c(/C=N/n2c(COc3ccccc3)n[nH]c2=S)c1 | inactive: 15.2%
80 | CCn1c(=O)c(C(=O)Nn2c(C)nc3ccccc3c2=O)c(O)c2ccccc21 | inconclusive: -38.5%
81 | Cn1c(C(=O)N2CCN(Cc3ccc4c(c3)OCO4)CC2)cc2sccc21 | inconclusive: -72.8%
82 | O=C(c1cccc(S(=O)(=O)NCCOc2ccccc2)c1)N1CCN(c2ncccn2)CC1 | inconclusive: -50.2%
83 | CC(=O)c1ccc(NC(=S)NC(=O)c2c(Cl)c(C)nn2C)cc1 | active: -109%
84 | O=C(Nc1c(C(=O)O)[nH]c2ccccc12)NC1CCCCC1 | active: -100%
85 | COc1ccc(C2=NOC(COC(=O)c3ccc4ccccc4n3)C2)cc1 (centres undefined) | inactive: -3.15%
86 | CCOc1ccc(C(=O)NC(=S)Nc2cccc(NC(=O)c3ccco3)c2)cc1[N+](=O)[O-] | inactive: 9.43%
87 | CCCCC(=O)Nc1ccc(C(N)=O)cc1 | inconclusive: -47.6%
88 | CCOC(=O)C1=C(c2ccccc2)OC(N)=C(C#N)C1C1CCCCC1 (centres undefined) | inconclusive: -69.9%
89 | CC(C)Oc1cccc(C(=O)NC(=S)N2CCN(c3ccc(C(F)(F)F)cc3[N+](=O)[O-])CC2)c1 | inconclusive: -51%
